Measured values reported in PubChem BioAssay AID493014 (National Center for Advancing Translational Sciences (NCATS), 2011).
The other results are listed elsewhere or left out. Shown are side measurements of this screen, not its main read-out; they come without a call. Compounds called inactive in the main read-out are mostly missing here. Potencies come from curve fits of mixed quality, noted in brackets.

Experiment: qHTS Assay to Find Inhibitors of Chronic Active B-Cell Receptor Signaling
Settings: ABC-DLBCL IkBa-CBG/CBR reporter, luminescence ratio (green luciferase fused to IkBa over red control in TMD8 lymphoma cells), 4 h
Outline: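 Concentration-response series (up to 46 uM) were applied to TMD8 dual-reporter cells for 4 h at 37C with doxycycline. Green/red ratio, after filter-overlap correction, defined %Activity; red signal alone was normalised to basal cells and zero luminescence.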

[1] = measured here: CBR red luminescence, cell number
[2] = measured here: IkBa-CBG green luminescence

With `Fc1ccc(-c2noc(-c3ccc4c(c3)CCO4)n2)cc1` the AC50 [1] was 28.2 µM [rising, single point].

In the case of `CCOc1ccc(NC(=O)c2cccc3c2C(=O)N(CCOC)C3)cc1`, the AC50 [1] is reported as 2.91 µM [rising, full curve, poor fit].

With `CC1CCN(CCCCOc2ccccc2F)CC1` the AC50 [1] was 20 µM [rising, single point].

For `O=C1OC(Nc2nc(-c3ccc(F)cc3)cs2)c2ccccc21` (configuration not stated), the AC50 [1] was 4.47 µM [falling, partial curve].

With `CC1=NN(c2ccccc2)C(=O)C1C(=O)C(=O)Nc1ccc(F)cc1` (configuration not stated) the AC50 [1] was 0.398 µM [falling, full curve, poor fit].

With `COc1ccc(S(=O)(=O)N2CCCCCC2)cc1C(=O)N(C)Cc1c(F)cccc1Cl` the AC50 [1] was 14.6 µM [rising, partial curve, poor fit].

With `Cn1c(=O)c2c(nc(Oc3ccccc3Cl)n2C)n(C)c1=O` the AC50 [1] was 8.91 µM [falling, single point].

With `Nc1sc(-c2ccccc2)cc1-c1n[nH]c(=S)n1C1CCCCC1` the AC50 [1] was 35.5 µM [rising, single point].

In the case of `O=C(Cc1c[nH]c2ccccc12)NCC(=O)Nc1ccc(F)c(F)c1F`, the AC50 [1] is reported as 23.1 µM [falling, single point].

With `Cc1oc(C)c2c(=O)ccc3c(c12)OC(N)=C(C#N)C3c1ccc(F)cc1` (configuration not stated) the AC50 [1] was 35.5 µM [falling, single point].

With `COc1ccc(OC[C@@H](O)CNC(=O)c2cccc3c2C(=O)c2ccc(Cl)cc2S3(=O)=O)cc1` the AC50 [1] was 0.517 µM [falling, full curve, poor fit].

With `c1ccc(-c2ncc3c(ccc4ccccc43)n2)cc1` the AC50 [1] was 5.17 µM [rising, partial curve, poor fit].

With `N#Cc1cccc(CS(=O)(=O)c2ccc(Cl)cc2)c1` the AC50 [1] was 12.6 µM [rising, single point].

For `COc1cccc(NC(=O)CSc2nc3c(oc4ccccc43)c(=O)[nH]2)c1`, the AC50 [1] was 10.3 µM [falling, partial curve].

In the case of `COc1ccc(NC(=O)CSc2nc3sc4c(c3c(=O)n2-c2ccc(OC)cc2)CCN(C)C4)cc1`, the AC50 [1] is reported as 1.26 µM [rising, partial curve, poor fit].

With `CCC(=Cc1ccc(CC)cn1)CC` the AC50 [1] was 35.5 µM [rising, partial curve, poor fit].

In the case of `O=C1c2ccccc2C(Nc2ccc(Cl)cn2)N1Cc1ccccc1` (configuration not stated), the AC50 [1] is reported as 0.517 µM [rising, full curve, poor fit].

For `CCCCc1ccc(NC(=S)N2CCCC2)cc1`, the AC50 [1] was 2.51 µM [rising, full curve, poor fit].

In the case of `COc1cccc(/C=N/NC(N)=S)c1OS(=O)(=O)c1ccccc1`, the AC50 [2] is reported as 18.4 µM [falling, partial curve, poor fit].

In the case of `Cc1ccc(C(=O)C[n+]2cc(-c3ccc(C)cc3)n3c2CCCCC3)cc1`, the AC50 [1] is reported as 11.2 µM [falling, partial curve, poor fit].

In the case of `O=C(NC(=S)NNC(=O)c1ccccc1O)c1cccnc1`, the AC50 [1] is reported as 7.08 µM [falling, partial curve].

In the case of `COC(=O)CCC(=O)c1oc2ccccc2c1N`, the AC50 [1] is reported as 3.98 µM [rising, partial curve, poor fit].

With `COc1cccc2c(=O)c3cccc(N)c3[nH]c12` the AC50 [1] was 29.1 µM [falling, partial curve, poor fit].

In the case of `CCC(=O)N(CCC(Cc1ccccc1)c1ccc2c(c1)OCO2)Cc1ccccc1F` (configuration not stated), the AC50 [2] is reported as 14.1 µM [rising, partial curve, poor fit].

In the case of `CCC(Sc1nc2c(cnn2-c2ccccc2)c(=O)[nH]1)C(=O)OC` (configuration not stated), the AC50 [1] is reported as 0.731 µM [rising, partial curve, poor fit].

In the case of `CCN(CC)C(=O)CSc1nc2sc(C)c(C)c2c(=O)[nH]1`, the AC50 [1] is reported as 29.1 µM [rising, single point].

With `CSc1nc(C)cc(OCCNS(=O)(=O)c2cc(C)ccc2C)n1` the AC50 [1] was 0.731 µM [rising, full curve].

With `Oc1ccc(/C=N\Nc2cc(N3CCOCC3)nc(N3CCOCC3)n2)c(O)c1` the AC50 [1] was 13 µM [falling, partial curve].

In the case of `CCN1CCc2c(sc(NC(=S)NC(=O)c3ccc(Cl)cc3)c2C(N)=O)C1`, the AC50 [1] is reported as 11.2 µM [rising, partial curve, poor fit].

With `C[C@H](N)C(=O)OCc1ccc([N+](=O)[O-])cc1` the AC50 [1] was 3.98 µM [rising, partial curve, poor fit].

In the case of `Cc1ccc2nc3c(c(Nc4ccc(O)cc4)c2c1)CCC3`, the AC50 [1] is reported as 6.31 µM [falling, full curve, poor fit].

In the case of `O=C(CNc1ccc(Br)cc1)NC(=O)NC1CCCCC1`, the AC50 [1] is reported as 4.61 µM [falling, partial curve].

In the case of `Cc1cccc2nc(CNc3ccc(F)cc3)cn12`, the AC50 [1] is reported as 2.06 µM [rising, partial curve, poor fit].

In the case of `O=C(Nc1ccccc1)c1csc(-c2ccccc2)n1`, the AC50 [1] is reported as 35.5 µM [falling, single point].

In the case of `CC(C)CCn1c(NCCc2ccccc2)nc2c1c(=O)n(C)c(=O)n2C`, the AC50 [1] is reported as 11.2 µM [falling, partial curve, poor fit].

For `C=CC[C@@H](CC(=O)N(CCO)Cc1ccccc1)C(=O)NC[C@H](OC(=O)[C@@H](CC=C)Cc1ccc(F)cc1)c1ccccc1`, the AC50 [1] was 29.1 µM [falling, single point].

In the case of `COC(=O)c1ccc(CN2CCc3ccccc32)cc1`, the AC50 [1] is reported as 2.82 µM [falling, partial curve, poor fit].

With `CC(=O)COc1ccc2c(C)c(-c3ccccc3)c(=O)oc2c1` the AC50 [1] was 5.01 µM [rising, partial curve, poor fit].

With `Cc1cc(C)c2ccc(Cl)cc2n1` the AC50 [1] was 0.355 µM [rising, full curve, poor fit].

In the case of `COc1ccc(Cl)cc1C(=O)Nc1ccc2c(c1)OCO2`, the AC50 [1] is reported as 2.82 µM [rising, partial curve, poor fit].

For `Cc1ccsc1/C=C1\SC(N)=NC1=O`, the AC50 [1] was 7.94 µM [falling, partial curve, poor fit].

With `COc1ccc(C(=O)NNC(=S)NC(=O)c2cccs2)cc1` the AC50 [1] was 35.5 µM [falling, partial curve, poor fit].
